Results deposited as PubChem BioAssay AID1224829 (NIAID, 2016)

- Screen: 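Secondary check of hits that alter LPS-induced p65 translocation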 (follow-up of hits)
- Cells: mouse RAW264.7 G9 macrophage reporter cells
- Reagent: single siRNA against mouse genes, 100 nM
- Duration: 2 days of siRNA knock-down, then 40 min of LPS before fixing
- Treatment: LPS (Salmonella minnesota R595) at 10 ng/ml
- Detection: 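High-content images after 40 min LPS exposure; GFP-p65 nucleus to surrounding ring signal ratio, normalised to plate median and non-targeting control wells, expressed as z-score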
- Direction: p65 translocation z-score: higher = more nuclear NF-kappaB p65 after LPS
- Hit rule: 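An siRNA is called active when the mean z-score of its two replicates is above 2 or below -2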
- Meaning of the calls: active = changed p65 translocation (either direction); inactive = no clear change
This is one part, drawn at random, of about 3,800 reagents tested. 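Calls cover raised and lowered translocation; gene median uses one vendor's three siRNAs; qiagen siRNAs acted more weakly than ambion siRNAs.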 A number with no mark means an inactive call. Reagents against one gene are numbered here. Further read-outs or replicates are left out here. Reagent sequences are not shown.

| target | reagent no. | siRNA vendor or control pool | p65 translocation z-score, replicate mean | p65 translocation z-score, replicate 1 |
| --- | --- | --- | --- | --- |
| Nab1 | 1 | ambion single siRNA | -4 (active) | -4.82 |
| Nab1 | 2 | ambion single siRNA | -2.18 (active) | -1.79 |
| Nab1 | 3 | ambion single siRNA | -2.05 (active) | -0.715 |
| Nab1 | 4 | qiagen single siRNA | -0.992 | -0.875 |
| Nab1 | 5 | qiagen single siRNA | 0.35 | -1.62 |
| Nab1 | 6 | qiagen single siRNA | -3.77 (active) | -4.27 |
| Irx3 | 1 | ambion single siRNA | 0.0023 | -0.949 |
| Irx3 | 2 | ambion single siRNA | 0.932 | 2.1 |
| Irx3 | 3 | ambion single siRNA | -2.84 (active) | -3.04 |
| Irx3 | 4 | qiagen single siRNA | 0.311 | 0.0844 |
| Irx3 | 5 | qiagen single siRNA | 1.69 | 1.69 |
| Irx3 | 6 | qiagen single siRNA | -3.01 (active) | -2.32 |
| Crisp1 | 1 | ambion single siRNA | 2.24 (active) | 2.82 |
| Crisp1 | 2 | ambion single siRNA | -2.72 (active) | -1.87 |
| Crisp1 | 3 | ambion single siRNA | -1.83 | -2.2 |
| Crisp1 | 4 | qiagen single siRNA | 1.91 | 0.171 |
| Crisp1 | 5 | qiagen single siRNA | -0.518 | 0.48 |
| Crisp1 | 6 | qiagen single siRNA | -2.65 (active) | -1.59 |
| Psmb6 | 1 | ambion single siRNA | 0.363 | 0.0539 |
| Psmb6 | 2 | ambion single siRNA | -2.53 (active) | -2.57 |
| Psmb6 | 3 | ambion single siRNA | -0.236 | 0.131 |
| Psmb6 | 4 | qiagen single siRNA | -3.06 (active) | -2.29 |
| Psmb6 | 5 | qiagen single siRNA | 0.214 | -0.34 |
| Psmb6 | 6 | qiagen single siRNA | -1.57 | -0.555 |

Laid out differently: results already given.
{"target":"Crisp1","reagent no.":4,"siRNA vendor or control pool":"qiagen single siRNA","p65 translocation z-score, replicate mean":1.91,"p65 translocation z-score, replicate 1":0.171}
{"target":"Crisp1","reagent no.":5,"siRNA vendor or control pool":"qiagen single siRNA","p65 translocation z-score, replicate mean":-0.518,"p65 translocation z-score, replicate 1":0.48}
{"target":"Crisp1","reagent no.":6,"siRNA vendor or control pool":"qiagen single siRNA","p65 translocation z-score, replicate mean":"-2.65 (active)","p65 translocation z-score, replicate 1":-1.59}
{"target":"Psmb6","reagent no.":1,"siRNA vendor or control pool":"ambion single siRNA","p65 translocation z-score, replicate mean":0.363,"p65 translocation z-score, replicate 1":0.0539}
